In article doi:10.1101/2020.04.20.033787 (bioRxiv, 2020):
No constants are given. Whether binding was seen depends on the method and setting. For part of these data: Binding seen in cells or lysates may run through a third protein. Some results given as binding are weak or reduced against the parent protein; the word gives no strength. Sequences can lack the tags named with a protein.

B1: Swi4 (protein, UniProt P25302 1-1093)
chain: MPFDVLISNQKDNTNHQNITPISKSVLLAPHSNHPVIEIATYSETDVYECYIRGFETKIVMRRTKDDWINITQVFKIAQFSKTKRTKILEKESNDMQHEKVQGGYGRFQGTWIPLDSAKFLVNKYEIIDPVVNSILTFQFDPNNPPPKRSKNSILRKTSPGTKITSPSSYNKTPRKKNSSSSTSATTTAANKKGKKNASINQPNPSPLQNLVFQTPQQFQVNSSMNIMNNNDNHTTMNFNNDTRHNLINNISNNSNQSTIIQQQKSIHENSFNNNYSATQKPLQFFPIPTNLQNKNVALNNPNNNDSNSYSHNIDNVINSSNNNNNGNNNNLIIVPDGPMQSQQQQQHHHEYLTNNFNHSMMDSITNGNSKKRRKKLNQSNEQQFYNQQEKIQRHFKLMKQPLLWQSFQNPNDHHNEYCDSNGSNNNNNTVASNGSSIEVFSSNENDNSMNMSSRSMTPFSAGNTSSQNKLENKMTDQEYKQTILTILSSERSSDVDQALLATLYPAPKNFNINFEIDDQGHTPLHWATAMANIPLIKMLITLNANALQCNKLGFNCITKSIFYNNCYKENAFDEIISILKICLITPDVNGRLPFHYLIELSVNKSKNPMIIKSYMDSIILSLGQQDYNLLKICLNYQDNIGNTPLHLSALNLNFEVYNRLVYLGASTDILNLDNESPASIMNKFNTPAGGSNSRNNNTKADRKLARNLPQKNYYQQQQQQQQPQNNVKIPKIIKTQHPDKEDSTADVNIAKTDSEVNESQYLHSNQPNSTNMNTIMEDLSNINSFVTSSVIKDIKSTPSKILENSPILYRRRSQSISDEKEKAKDNENQVEKKKDPLNSVKTAMPSLESPSSLLPIQMSPLGKYSKPLSQQINKLNTKVSSLQRIMGEEIKNLDNEVVETESSISNNKKRLITIAHQIEDAFDSVSNKTPINSISDLQSRIKETSSKLNSEKQNFIQSLEKSQALKLATIVQDEESKVDMNTNSSSHPEKQEDEEPIPKSTSETSSPKNTKADAKFSNTVQESYDVNETLRLATELTILQFKRRMTTLKISEAKSKINSSVKLDKYRNLIGITIENIDSKLDDIEKDLRANA
B2: Swi6 (protein, UniProt P09959 1-803)
chain: MALEEVVRYLGPHNEIPLTLTRDSETGHFLLKHFLPILQQYHDTGNINETNPDSFPTDEERNKLLAHYGIAVNTDDRGELWIELEKCLQLLNMLNLFGLFQDAFEFEEPETDQDEEDPSHSKLPENKTKSENSKDNISSKRINNLQDMSLDSDAHRELGSPLKKLKIDTSVIDAESDSTPNTARGKPNDDINKGPSGDNENNGTDDNDRTAGPIITFTHDLTSDFLSSPLKIMKALPSPVVNDNEQKMKLEAFLQRLLFPEIQEMPTSLNNDSSNRNSEGGSSNQQQQHVSFDSLLQEVNDAFPNTQLNLNIPVDEHGNTPLHWLTSIANLELVKHLVKHGSNRLYGDNMGESCLVKAVKSVNNYDSGTFEALLDYLYPCLILEDSMNRTILHHIIITSGMTGCSAAAKYYLDILMGWIVKKQNRPIQSGTNEKESKPNDKNGERKDSILENLDLKWIIANMLNAQDSNGDTCLNIAARLGNISIVDALLDYGADPFIANKSGLRPVDFGAGTSKLQNTNGGDENSKMVSKGDYDGQKNGKAKKIRSQLLKNPPETTSLINDVQNLLNSISKDYENETVQYNEKLEKLHKELNEQREELANSREQLANVKQLKDEYSLMQEQLTNLKAGIEEEEESFREESKKLGIIADESSGIDWDSSEYDADEPFKVEFLSDFLEDKLQKNYEGDISKLLEAESKEQIMEQIRNQLPAEKIQSMLPPTVLLKARINAYKRNDKHLTNVLDTISTKQSELENKFRRVLSLCLKIDENKVDNMLDGLLQAISSEDPQDIDTDEMQDFLKKHAS
B3: Swi6 (recombinant, insect cells) (protein, UniProt P09959 1-803)
chain: B2 chain

Experiments:
Whi5^HA (S. cerevisiae) = target: T1, Whi5^HA (S. cerevisiae) (UniProt Q12416); assay: co-IP
T1 sequence: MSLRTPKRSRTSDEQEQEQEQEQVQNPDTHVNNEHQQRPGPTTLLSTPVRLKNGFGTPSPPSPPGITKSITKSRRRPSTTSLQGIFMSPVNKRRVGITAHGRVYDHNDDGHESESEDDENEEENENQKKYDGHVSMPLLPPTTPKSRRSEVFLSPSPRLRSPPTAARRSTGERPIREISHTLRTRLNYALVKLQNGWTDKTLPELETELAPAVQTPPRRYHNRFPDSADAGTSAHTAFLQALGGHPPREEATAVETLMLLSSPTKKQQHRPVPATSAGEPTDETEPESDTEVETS

[1] = target: T2, Whi5^13MYC (S. cerevisiae) (UniProt Q12416); assay: co-IP
T2 sequence: T1 sequence

[2] = target: T3, ^FLAGSwi4 (recombinant, insect cells) (S. cerevisiae) (UniProt P25302); assay: co-purification on anti-FLAG resin
T3 sequence: B1 chain

[3] = target: T4, ^FLAGMbp1 (recombinant, insect cells) (S. cerevisiae) (UniProt P39678); assay: co-purification on anti-FLAG resin
T4 sequence: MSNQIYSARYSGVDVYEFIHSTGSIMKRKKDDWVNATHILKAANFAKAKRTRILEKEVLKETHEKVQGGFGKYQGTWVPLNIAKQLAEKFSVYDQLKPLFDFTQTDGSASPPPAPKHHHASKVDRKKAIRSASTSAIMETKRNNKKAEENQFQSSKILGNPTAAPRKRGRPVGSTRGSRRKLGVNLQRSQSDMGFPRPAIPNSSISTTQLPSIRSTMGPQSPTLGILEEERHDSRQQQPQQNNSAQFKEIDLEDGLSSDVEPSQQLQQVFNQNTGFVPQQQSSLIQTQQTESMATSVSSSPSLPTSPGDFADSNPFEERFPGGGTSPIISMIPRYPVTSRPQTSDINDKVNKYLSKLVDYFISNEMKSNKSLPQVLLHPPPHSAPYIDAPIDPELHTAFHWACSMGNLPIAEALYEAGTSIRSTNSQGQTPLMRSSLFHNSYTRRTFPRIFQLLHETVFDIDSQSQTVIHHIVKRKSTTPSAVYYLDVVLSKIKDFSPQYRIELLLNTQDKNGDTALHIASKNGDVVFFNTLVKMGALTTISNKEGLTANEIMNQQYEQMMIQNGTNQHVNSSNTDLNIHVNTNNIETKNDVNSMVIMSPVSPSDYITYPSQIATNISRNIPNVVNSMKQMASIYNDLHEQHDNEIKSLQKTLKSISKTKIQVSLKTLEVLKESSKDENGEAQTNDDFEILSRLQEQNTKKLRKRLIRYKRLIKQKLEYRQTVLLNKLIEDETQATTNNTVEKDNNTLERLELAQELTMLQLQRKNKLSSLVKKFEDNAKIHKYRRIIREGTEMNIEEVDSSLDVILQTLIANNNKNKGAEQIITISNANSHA

| Binder | binding (Whi5^HA (S. cerevisiae)) | binding [1] | binding [2] | binding [3] |
| --- | --- | --- | --- | --- |
| B1 | binds | binds |  |  |
| B2 | binds | binds |  |  |
| B3 |  |  | binds | binds |
